Experimental data published in PubChem BioAssay AID1487 (National Center for Advancing Translational Sciences (NCATS), 2009).
Values joined by “and” are separate entries in the source; they are usually repeats but may differ in a detail not shown here. Equal values may be shown once. The list shows a part of the results. Shown are side measurements of this screen, not its main read-out; they come without a call. Most of these compounds were active or inconclusive in the main read-out, so they are no random draw. The note in brackets gives the kind of curve behind each potency; many fits are weak.

Experiment: qHTS Assay for Modulators of Lamin A Splicing
Conditions: HeLa LMNA splicing GFP/RFP minigene ratio, 48 h
Outline: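 S3 HeLa cells stably expressing lamin A-EGFP splicing minigene plus DsRed2, 600 cells/well, 48 h compound exposure at 37C. Laser-scanning cytometry; analysed as GFP (500-530 nm)/RFP (575-640 nm) total intensity ratio; 0.5% DMSO vehicle.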

[1] = measured here: GFP splicing reporter channel
[2] = measured here: RFP viability control channel

Structure (SMILES): CN(c1ccccc1)S(=O)(=O)c1cccc(NC(=O)c2cc(=O)c3ccccc3o2)c1
- AC50 [1]: 17.8 µM [rising, single point]

Structure (SMILES): COc1cc(/C=C/C(=O)c2cccc([N+](=O)[O-])c2)cc(OC)c1OC
- AC50 [1]: 35.5 µM [falling, single point]
- AC50 [2]: 35.5 µM [falling, single point]

Structure (SMILES): O=C(NCc1ccc2c(c1)OCO2)c1ccc(S(=O)(=O)N2CCOCC2)cc1
- AC50 [1]: 0.0631 µM [falling, full curve]
- AC50 [2]: 0.0562 µM [falling, full curve, poor fit]

Structure (SMILES): O=c1sc2ccccc2n1Cc1ccccc1
- AC50 [1]: 22.4 µM [falling, partial curve, poor fit]

Structure (SMILES): CN(C)CC(C(=O)c1ccccc1)c1ccccc1 (configuration not stated)
- AC50 [1]: 3.55 µM [falling, full curve, poor fit]
- AC50 [2]: 3.55 µM [rising, single point]

Structure (SMILES): CCCCC1=CC2=C(c3ccco3)C(=O)C(C)(OC(=O)c3ccc(OC)cc3)C(=O)C2=CN1CC(C)C (configuration not stated)
- AC50 [1]: 0.0126 µM [rising, full curve, poor fit]

Structure (SMILES): Cc1ccc(-n2nc(C)c(NC(=O)CCl)c2C)cc1
- AC50 [1]: 10 µM [falling, partial curve, poor fit]
- AC50 [2]: 10 µM [falling, partial curve]

Structure (SMILES): COc1ccc(-c2cc(-c3ccccc3)n3ncnc3n2)cc1
- AC50 [2]: 11.2 µM [rising, partial curve]

Structure (SMILES): CN(C(=O)c1cc(-n2cnnc2)ccc1Cl)c1ccccc1
- AC50 [1]: 0.00891 µM [rising, full curve, poor fit]
- AC50 [2]: 0.00447 µM [rising, full curve, poor fit]

Structure (SMILES): N#Cc1nc(-c2cccs2)oc1NCc1ccc(Cl)cc1
- AC50 [2]: 14.1 µM [rising, single point]

Structure (SMILES): COc1ccc(C(C#N)N2N=C(C)CC2(C)C)cc1 (configuration not stated)
- AC50 [2]: 0.316 µM [falling, full curve, poor fit]

Structure (SMILES): Cc1ccc(Cl)cc1-n1ncc2c(NC3CCCCCC3)ncnc21
- AC50 [1]: 0.0398 µM [falling, full curve, poor fit]
- AC50 [2]: 0.02 µM [falling, full curve, poor fit]

Structure (SMILES): COCC(C)n1c(SCC(=O)N2CCc3ccccc3C2)nc2ccccc2c1=O (configuration not stated)
- AC50 [1]: 12.6 µM [rising, single point]
- AC50 [2]: 20 µM [rising, partial curve]

Structure (SMILES): COc1ccc(-c2csc(N3CCN(C(=O)c4ccccc4)CC3)n2)cc1
- AC50 [2]: 17.8 µM [rising, single point]

Structure (SMILES): CCOC(=O)COc1cc(-n2c(=S)[nH]c3ccccc3c2=O)c(Cl)cc1Cl
- AC50 [1]: 0.251 µM [rising, full curve, poor fit]

Structure (SMILES): NC(N)=NC(N)=NCCc1ccccc1
- AC50 [1]: 0.224 µM [falling, full curve]
- AC50 [2]: 398 nM [falling, full curve] and 35.5 µM [rising, single point]

Structure (SMILES): CCCCc1nc2c(c3c1C[C@H](C)OC3)CN(C(=O)c1cccnc1)CC2
- AC50 [1]: 0.0316 µM [rising, full curve, poor fit]
- AC50 [2]: 0.112 µM [rising, full curve]

Structure (SMILES): COc1cc(NC(=O)c2cc(-c3cccs3)on2)cc(OC)c1OC
- AC50 [1]: 15.8 µM [rising, single point]
- AC50 [2]: 14.1 µM [rising, single point]

Structure (SMILES): Cc1cccc(C(O)(C(=O)NNc2ccc3ccccc3n2)c2cccc(C)c2)c1
- AC50 [2]: 20 µM [rising, partial curve, poor fit]

Structure (SMILES): Cc1nnc(SCc2ccc([N+](=O)[O-])cc2)[nH]c1=O
- AC50 [2]: 0.2 µM [falling, full curve, poor fit]

Structure (SMILES): O=S(=O)(c1cccs1)n1nnc2ccccc21
- AC50 [2]: 0.00447 µM [falling, full curve, poor fit]

Structure (SMILES): CCOC(=O)N1CCN(S(=O)(=O)c2ccc(OC)c(Cl)c2Cl)CC1
- AC50 [1]: 15.8 µM [rising, partial curve, poor fit]
- AC50 [2]: 11.2 µM [rising, partial curve, poor fit]

Structure (SMILES): COCCN(C(C)=O)c1nnc(-c2ccccn2)s1
- AC50 [1]: 2.51 µM [rising, partial curve]
- AC50 [2]: 3.16 µM [rising, partial curve, poor fit]

Structure (SMILES): Cc1nn(Cc2ccc(F)cc2)c2sc(C(=O)Nc3ccc(N4CCOCC4)cc3N3CCOCC3)cc12
- AC50 [1]: 12.6 µM [rising, single point]
- AC50 [2]: 25.1 µM [rising, single point]

Structure (SMILES): CC1(C(=O)N/N=C/c2ccc([N+](=O)[O-])o2)CC1(Br)Br (configuration not stated)
- AC50 [1]: 15.8 µM [rising, single point]
- AC50 [2]: 35.5 µM [rising, single point]

Structure (SMILES): Cc1cccc2sc(NNC(=O)c3ccc(S(=O)(=O)N4CC(C)CC(C)C4)cc3)nc12 (configuration not stated)
- AC50 [1]: 35.5 µM [falling, single point]

Structure (SMILES): CCOc1ccc(NC(=O)N2CCN(c3nc4ccccc4s3)CC2)cc1
- AC50 [1]: 17.8 µM [rising, partial curve]

Structure (SMILES): O=C(NCc1ccc2c(c1)CCN2C(=O)c1ccc(F)cc1)c1cc2ccccc2[nH]1
- AC50 [1]: 25.1 µM [falling, single point]

Structure (SMILES): COc1ccccc1CNC(=O)CCC(=O)N1CC2CCCN2c2ccccc21 (configuration not stated)
- AC50 [1]: 2 µM [falling, full curve, poor fit]

Structure (SMILES): Fc1cc(F)cc(NC(=S)NN2CCOCC2)c1
- AC50 [2]: 0.0398 µM [rising, full curve, poor fit]

Structure (SMILES): CC(NC(=O)c1cccnc1)C(=O)O (configuration not stated)
- AC50 [1]: 0.0224 µM [falling, full curve, poor fit]
- AC50 [2]: 0.0224 µM [falling, full curve, poor fit]

Structure (SMILES): Cn1c(SCc2ccc(Cl)cc2)nc(C(F)(F)F)cc1=O
- AC50 [2]: 0.00501 µM [falling, full curve, poor fit]

Structure (SMILES): CCCCS(=O)(=O)c1sc2nc3c(cc2c1N)CCCC3
- AC50 [2]: 12.6 µM [rising, partial curve]

Structure (SMILES): CC12COC3(C(=O)Nc4ccc([N+](=O)[O-])cc4)CC1CCC32C (configuration not stated)
- AC50 [2]: 35.5 µM [rising, single point]

Structure (SMILES): CCc1ccccc1-n1c(SCC(=O)Nc2ccc3c(c2)OCCO3)nc2[nH]ncc2c1=O
- AC50 [2]: 11.2 µM [rising, single point]

Structure (SMILES): O=C(CCCOc1ccc(Cl)cc1Cl)N/N=C\C1CCCCC1
- AC50 [1]: 22.4 µM [falling, single point]
- AC50 [2]: 22.4 µM [falling, single point]

Structure (SMILES): COc1ccc(SCc2cc(=O)c3cc(Cl)ccc3[nH]2)cc1
- AC50 [1]: 0.0251 µM [falling, full curve, poor fit]
- AC50 [2]: 0.0224 µM [falling, full curve, poor fit]

Structure (SMILES): COc1ccc(Nc2cccc(Cl)c2)c(C(=O)O)c1
- AC50 [2]: 12.6 µM [rising, partial curve]

Structure (SMILES): Cc1nc2cc(C(=O)N3c4ccccc4CC3C)ccc2s1 (configuration not stated)
- AC50 [1]: 0.316 µM [falling, full curve]
- AC50 [2]: 0.0708 µM [falling, full curve]

Structure (SMILES): O=C(NC1CCCCC1)c1ccc(Cn2c(SCc3ccccc3F)nc3cccnc32)cc1
- AC50 [1]: 10 µM [falling, partial curve]

Structure (SMILES): COc1cccc(C(=O)Nc2cccc(C(=O)OCc3cc(=O)n4nc(C5CC5)sc4n3)c2)c1
- AC50 [1]: 1.12 µM [falling, full curve]

Structure (SMILES): COc1ccc(C)cc1NC(=O)CN1CCN(c2ccccc2F)CC1
- AC50 [2]: 14.1 µM [rising, single point]

Structure (SMILES): O=C(c1ccccc1)N1CCN(c2ccc(NCc3ccc4c(c3)OCO4)cc2)CC1
- AC50 [2]: 15.8 µM [rising, partial curve]

Structure (SMILES): Cn1c(=O)c2c(nc(NCCO)n2CCc2ccccc2)n(C)c1=O
- AC50 [2]: 6.31 µM [rising, full curve, poor fit]

Structure (SMILES): c1ccc2c(NC3CC3)nc(-c3ccoc3)nc2c1
- AC50 [1]: 8.91 µM [falling, partial curve]

Structure (SMILES): Cc1noc(C)c1CSc1ccccc1C(=O)Nc1nccs1
- AC50 [1]: 0.2 µM [rising, full curve, poor fit]
- AC50 [2]: 1.41 µM [rising, partial curve]

Structure (SMILES): O=C(Nc1ccc(F)cc1)Nc1ccc(N2CCCC2)c(S(=O)(=O)Nc2ccccc2Cl)c1
- AC50 [2]: 4.47 µM [rising, full curve, poor fit]

Structure (SMILES): O=[N+]([O-])c1ccc(N2CCNCC2)cc1Sc1nc2ccccc2[nH]1
- AC50 [2]: 14.1 µM [rising, partial curve]

Structure (SMILES): Cc1ccc(C(=O)/C=C/C(=O)c2ccc(C)cc2)cc1
- AC50 [1]: 2.82 µM [falling, partial curve, poor fit]
- AC50 [2]: 3.16 µM [falling, full curve]

Structure (SMILES): COc1cc(CNn2c(C)n[nH]c2=S)cc(Br)c1OCc1ccc(F)cc1
- AC50 [1]: 22.4 µM [rising, single point]
- AC50 [2]: 31.6 µM [rising, single point]

Structure (SMILES): O=C(CSc1nnnn1C1CCCCC1)N1c2ccccc2Sc2ccccc21
- AC50 [2]: 31.6 µM [rising, single point]

Structure (SMILES): CCS(=O)(=O)N1CCN(CC(=O)NC2CCCCC2)CC1
- AC50 [1]: 0.794 µM [rising, single point]

Structure (SMILES): CCCCOc1ccc(-c2nn(-c3ccccc3)cc2C2NC(=O)NC(C)=C2C(=O)OC)cc1 (configuration not stated)
- AC50 [1]: 20 µM [falling, single point]
- AC50 [2]: 22.4 µM [falling, single point]

Structure (SMILES): Nc1nnc(CC(=O)N/N=C/c2cc([N+](=O)[O-])cc(Br)c2O)s1
- AC50 [1]: 0.224 µM [rising, single point]

Structure (SMILES): COc1ccccc1NC(=O)C1=C(C)Nc2c(C(=O)Nc3ccc(F)cc3)cnn2C1c1cccc([N+](=O)[O-])c1 (configuration not stated)
- AC50 [1]: 8.91 µM [falling, full curve, poor fit]
